Results from publication PMC3499479.
These are yes or no findings as the source states them, for the method shown. Some binding calls cover weakened binding; strength is not graded here.

Columns and labels:
Test in all cases: two-hybrid; FBX fused to Gal4-DB, ASK fused to Gal4-AD; yeast mating; selection on SD without Leu, Trp, His, Ade (high strength) or without Leu, Trp, His (low strength); every combination examined twice
[1] = biological target: T1, F-box (FBX) protein At1g47730 (Arabidopsis thaliana) (UniProt Q9SXA0)
T1 sequence: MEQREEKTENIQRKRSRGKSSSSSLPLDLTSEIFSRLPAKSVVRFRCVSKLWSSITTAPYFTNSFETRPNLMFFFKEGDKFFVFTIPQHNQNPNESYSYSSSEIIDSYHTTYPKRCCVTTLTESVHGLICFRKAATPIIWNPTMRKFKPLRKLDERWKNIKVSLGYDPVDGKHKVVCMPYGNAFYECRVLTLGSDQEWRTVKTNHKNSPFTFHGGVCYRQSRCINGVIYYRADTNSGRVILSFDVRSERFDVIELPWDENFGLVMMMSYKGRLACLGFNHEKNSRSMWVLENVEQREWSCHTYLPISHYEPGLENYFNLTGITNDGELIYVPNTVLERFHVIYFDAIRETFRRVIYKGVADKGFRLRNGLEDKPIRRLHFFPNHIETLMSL

[2] = biological target: T2, F-box (FBX) protein At1g51290 (Arabidopsis thaliana) (UniProt Q9SYD0)
T2 sequence: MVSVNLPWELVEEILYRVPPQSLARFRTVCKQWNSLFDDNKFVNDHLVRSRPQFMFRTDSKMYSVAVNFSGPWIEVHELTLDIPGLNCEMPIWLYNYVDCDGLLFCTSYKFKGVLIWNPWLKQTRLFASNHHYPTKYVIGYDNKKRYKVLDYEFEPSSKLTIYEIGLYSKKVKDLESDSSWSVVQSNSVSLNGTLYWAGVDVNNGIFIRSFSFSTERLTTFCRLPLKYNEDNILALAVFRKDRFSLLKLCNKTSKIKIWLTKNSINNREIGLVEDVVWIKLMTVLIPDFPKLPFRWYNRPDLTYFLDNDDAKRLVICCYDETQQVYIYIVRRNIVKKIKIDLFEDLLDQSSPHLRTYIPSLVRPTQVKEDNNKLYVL

[3] = biological target: T3, F-box (FBX) protein At2g43270 (Arabidopsis thaliana) (UniProt Q1PEU9)
T3 sequence: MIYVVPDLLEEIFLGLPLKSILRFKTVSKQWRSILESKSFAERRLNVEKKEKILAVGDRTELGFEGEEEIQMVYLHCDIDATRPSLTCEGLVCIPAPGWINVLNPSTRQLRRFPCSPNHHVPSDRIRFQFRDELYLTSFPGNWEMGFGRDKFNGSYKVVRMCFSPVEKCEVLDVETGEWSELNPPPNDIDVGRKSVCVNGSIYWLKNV

[4] = biological target: T4, F-box (FBX) protein At3g04660 (Arabidopsis thaliana) (UniProt Q9SR08)
T4 sequence: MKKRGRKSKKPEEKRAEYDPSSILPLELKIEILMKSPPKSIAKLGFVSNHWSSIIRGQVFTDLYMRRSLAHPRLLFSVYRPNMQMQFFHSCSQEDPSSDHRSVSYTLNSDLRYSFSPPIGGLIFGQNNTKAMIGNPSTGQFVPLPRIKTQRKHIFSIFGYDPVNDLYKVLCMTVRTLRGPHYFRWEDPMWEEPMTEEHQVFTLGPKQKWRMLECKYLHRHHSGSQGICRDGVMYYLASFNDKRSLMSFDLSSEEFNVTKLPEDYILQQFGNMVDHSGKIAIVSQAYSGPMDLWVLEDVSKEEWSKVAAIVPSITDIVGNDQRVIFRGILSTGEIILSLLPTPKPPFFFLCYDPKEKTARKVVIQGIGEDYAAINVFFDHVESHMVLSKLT

- binding [1]: binds
- binding [2]: binds
- binding [3]: binds
- binding [4]: binds
B1: Arabidopsis SKP1-LIKE 14 (ASK14) (protein, UniProt O81057 1-149)
chain: MSSNKIVLSSSDGESFEVEEAVARKLKIVEHMIEDDCVVTEVPLQNVTGKILSIVVEYCKKHVVDEESDEFKTWDEEFMKKFDQPTVFQLLLAANYLNIKGLLDLSAQTVADRIKDKTPEEIREIFNIENDFTPEEEAAVRKENAWAFE
